# Reference: PubChem BioAssay AID1347426 (Functional Genomics Laboratory (NCATS/FGL), 2020)
# Hit rate of the full screen: of about 31,000 sequences, about 1,400 (4.5%) were called active.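 How the source made its calls: active means median seed-adjusted z-score above 1 or below -1; inactive means the rest.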 The list shows a part of the results.
# Test: Novel Modifiers of Survival Motor Neuron (SMN) Protein: Gene Identification via Genome-wide siRNA Screen;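 further: luminescence tracks full-length SMN protein made from the SMN2 reporter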
# Conditions: HEK293T SMN2-luciferase reporter, siRNA knockdown, 72 h; actives lie on both sides
# How it was run: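 siRNA screen, 10418 genes ×3 siRNAs; 1 pmol/well, lipid reverse transfection into HEK293T SMN2-luc reporter line. 72 h, 37 °C, 5% CO2; ONE-Glo readout. Data: neg-ctrl normalized, log10, MAD; hit = MAD >1.0 or < -1.0.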
row,Sequence,median seed-adjusted z-score
1,AUAUGUCUCUGUAAAGUGATT against SP5,inactive: 0.105
2,CAGAUGCGGUUUAAACAGATT against TBC1D9B,inactive: -0.906
3,AGACACCGCUGUCCACUCATT against NOS1AP,inactive: 0.00192
4,AGCCCAAGGUGGAACAAUCTT against CREM,active: -2.37
5,CCUUAUUACGGGAGGGUGATT against IL22RA2,inactive: -0.147
6,CAGUAGAACUUGGAUUAGATT against AKAP5,inactive: 0.0592
7,ACAGCUCCGUGUUGACUCATT against FOXG1,inactive: 0.749
8,CCUCAUCUAUGGGCACUUUTT against HMGCL,inactive: 0.046
9,GGAUGACUGUACUAAGAAATT against ZNF554,inactive: 0.0311
10,GAGUUUCUGUGGACCGCAATT against TRIM2,inactive: -0.207
11,AACUAGAAGUCAUCAUUGATT against SLC8A3,inactive: -0.0434
12,AGACUAUGCGAAGAACUUATT against GAS7,inactive: 0.335
13,ACCUGUGUGCUGUACUUUUTT against TUBA1C,inactive: 0.157
14,ACAUUAUGGGCAUCGAGAATT against NR2F1,inactive: 0.259
15,GGCAUUGAAUUUAACUCAATT against SEMA3D,inactive: -0.0201
16,GCUUGACCUUUGAAUAUGATT against CRY2,inactive: 0.0209
17,GGAAGUCCAUUGACCCAAATT against SPAST,inactive: 0.0703
18,CUAUGUUUGUGACCAGUGUTT against ZNF689,inactive: 0.448
19,GCACUGCCUGCUGUACUCATT against CCL27,inactive: 0
20,GGCGAGAAGUUUAAACUCATT against DNAJA4,inactive: 0.145
21,GGCGGUACCUGCAGAUGAATT against ACOT7,inactive: 0.665
22,UGAAAAGACUUGAUGUGAATT against THAP6,inactive: 0.368
23,GGAUUCAUGAGUCUAUAUATT against SLC25A27,inactive: 0.0916
24,AGGAUGGAGUGGAGACAUATT against EMILIN1,inactive: 0
25,GCAUCUAAGAAGAUCAACATT against UTRN,inactive: 0.909
26,CCACGAUGCUGAGCUCCUATT against RNF112,inactive: -0.42
27,GCAAUACGCUUGAACUGAATT against MYO1E,inactive: -0.02
28,CAAAUCUGCUCAUCGAAAATT against MID1,inactive: -0.294
29,GGGUCUCAGAAGACGUGUATT against CRAT,active: -1.42
30,GCUAUACCGUAAUUACCUUTT against GPR18,inactive: -0.378

# Shown as tab-separated lines: part of the list above
row	Sequence	median seed-adjusted z-score
2	CAGAUGCGGUUUAAACAGATT against TBC1D9B	inactive: -0.906
3	AGACACCGCUGUCCACUCATT against NOS1AP	inactive: 0.00192
6	CAGUAGAACUUGGAUUAGATT against AKAP5	inactive: 0.0592
12	AGACUAUGCGAAGAACUUATT against GAS7	inactive: 0.335
13	ACCUGUGUGCUGUACUUUUTT against TUBA1C	inactive: 0.157
17	GGAAGUCCAUUGACCCAAATT against SPAST	inactive: 0.0703
21	GGCGGUACCUGCAGAUGAATT against ACOT7	inactive: 0.665
25	GCAUCUAAGAAGAUCAACATT against UTRN	inactive: 0.909
